Test results: paper PMC12615815, “GroEL/ES chaperonin unfolds then encapsulates a nascent protein on the ribosome” (Nature Communications, 2025)
These are yes or no findings as the source states them, for the method shown. Some results given as binding are weak or reduced against the parent protein; the word gives no strength.

Tests used:
[1] = molecular target: T1, Ribosomal stalk protein L7/L12 (E. coli, UniProt P0A7K2 1-121); experiment: cross-linking; XL-MS: empty 70S ribosomes (complete or stripped of L7/L12) with 5 µM GroEL, 1 mM DSBU 1 h at 25 °C, ribosomal fraction pelleted, LC-MS/MS; both purified
T1 construct: ribosomal protein L7/L12, E. coli, as part of the ribosome; Cross-linked while part of the 70S ribosome or RNC; also called stalk complex; source: endogenous, in E. coli 70S ribosomes (bought: NEB) and in RNCs purified from E. coli

[2] = molecular target: T1, Ribosomal stalk protein L7/L12; experiment: cross-linking; XL-MS: RNC_(1-510mut) with 5 µM GroEL and 10 µM GroES, then 1 mM ATP, 1 mM BeSO4, 10 mM NaF; 1 mM DSBU 1 h at 25 °C; both purified
[3] = molecular target: T1, Ribosomal stalk protein L7/L12; experiment: cross-linking; XL-MS: 1-2 µM RNC with 5 µM GroEL (30 min, 30 °C), 1 mM DSBU 1 h at 25 °C, ribosomal fraction pelleted, trypsin, LC-MS/MS, MeroX; both purified

Measured: binding

GroEL (V381W, A384W, V387W) (from UniProt P0A6F5 2-525)
binds: all assays above
